The text below walks through data of publication PMC8892744.

Chains of the proteins cited; added tags and fusions are not shown. Residues count along the entry.
UniProt Q96KS9: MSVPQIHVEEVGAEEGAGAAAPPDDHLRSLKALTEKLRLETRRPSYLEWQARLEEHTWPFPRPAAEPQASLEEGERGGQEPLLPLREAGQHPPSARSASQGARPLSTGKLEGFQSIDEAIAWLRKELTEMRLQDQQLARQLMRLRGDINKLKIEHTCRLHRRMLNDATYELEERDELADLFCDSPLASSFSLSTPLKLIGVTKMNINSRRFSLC
UniProt Q02413, residues 50-1049: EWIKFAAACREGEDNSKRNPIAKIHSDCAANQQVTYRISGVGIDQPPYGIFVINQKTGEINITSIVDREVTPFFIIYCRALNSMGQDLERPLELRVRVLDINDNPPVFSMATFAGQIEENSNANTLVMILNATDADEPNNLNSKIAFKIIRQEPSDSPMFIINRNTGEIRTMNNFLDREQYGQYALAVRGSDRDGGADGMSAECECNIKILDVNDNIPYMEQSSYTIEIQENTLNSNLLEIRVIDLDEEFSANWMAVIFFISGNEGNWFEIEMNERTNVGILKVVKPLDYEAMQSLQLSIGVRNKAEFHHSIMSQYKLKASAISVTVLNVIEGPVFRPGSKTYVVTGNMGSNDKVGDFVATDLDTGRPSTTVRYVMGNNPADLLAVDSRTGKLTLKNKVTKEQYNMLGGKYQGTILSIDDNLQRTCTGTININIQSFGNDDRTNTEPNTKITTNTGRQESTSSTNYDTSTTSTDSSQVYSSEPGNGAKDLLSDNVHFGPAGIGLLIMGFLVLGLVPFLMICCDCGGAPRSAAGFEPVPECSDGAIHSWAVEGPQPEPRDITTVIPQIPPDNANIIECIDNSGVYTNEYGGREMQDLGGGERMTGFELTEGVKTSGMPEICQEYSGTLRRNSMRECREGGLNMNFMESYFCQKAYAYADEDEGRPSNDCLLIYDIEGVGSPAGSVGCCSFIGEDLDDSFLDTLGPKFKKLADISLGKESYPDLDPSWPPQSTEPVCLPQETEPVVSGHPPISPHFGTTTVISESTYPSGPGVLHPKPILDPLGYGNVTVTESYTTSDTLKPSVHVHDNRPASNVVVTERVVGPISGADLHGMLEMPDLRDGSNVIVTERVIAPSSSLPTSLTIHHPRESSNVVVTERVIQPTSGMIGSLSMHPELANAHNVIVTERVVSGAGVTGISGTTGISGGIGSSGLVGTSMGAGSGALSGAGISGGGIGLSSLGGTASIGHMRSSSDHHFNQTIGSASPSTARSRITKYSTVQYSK

No constants are given. Whether binding was seen depends on the method and setting. In cells and extracts the contact can be indirect. These calls come from enrichment with a bait or labelling near it, and not all partners need be listed.

The target in this assay is Myc-tagged recombinant FAM167A (UniProt Q96KS9). In words: affinity purification with mass spectrometry; Myc-tagged recombinant FAM167A and anti-Myc antibodies bound to Protein G Sepharose beads used to pull down the receptor from K562R cells; silver staining; bands identified by LC-MS/MS; only the target purified.

For the substance “desmoglein-1 (DSG1) (from UniProt Q02413 50-1049) (receptor)”, the binding entry is “binds”.
